This is one part of the list. Single values are uncertain, as repeats are few or missing.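 The apoptosis fraction was the count of cleaved-PARP antibody-stained nuclei relative to all DNA-stained nuclei, imaged in 1,536-well plates. Screening doses were set so most cells survived, and baseline and induced cleaved-PARP levels vary greatly across cell lines.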
Assays:
Test in all cases: cleaved PARP positive nuclei fraction relative to DMSO control; melanoma cells; higher = more apoptosis
Conditions in all cases: library dose: low library concentration; 72 h
501Mel = test system: 501Mel
A101D = test system: A101D
A2058 = test system: A2058
A375 = test system: A375
C32 = test system: C32
CBRC008 = test system: CBRC008 (line from a melanoma biopsy)
CBRC014 = test system: CBRC014 (line from a melanoma biopsy)
CBRC016 = test system: CBRC016 (line from a melanoma biopsy)
CBRC017 = test system: CBRC017 (line from a melanoma biopsy)
CBRC034 = test system: CBRC034 (line from a melanoma biopsy)
COLO792 = test system: COLO792
COLO800 = test system: COLO800
COLO829 = test system: COLO829
G361 = test system: G361
IPC-298 = test system: IPC-298
IST-MEL1 = test system: IST-MEL1
LB2518-MEL = test system: LB2518-MEL
LOXIMVI = test system: LOXIMVI
MEL-HO = test system: MEL-HO

Compound | cleaved PARP positive nuclei fraction (501Mel) | cleaved PARP positive nuclei fraction (A101D) | cleaved PARP positive nuclei fraction (A2058) | cleaved PARP positive nuclei fraction (A375) | cleaved PARP positive nuclei fraction (C32) | cleaved PARP positive nuclei fraction (CBRC008) | cleaved PARP positive nuclei fraction (CBRC014) | cleaved PARP positive nuclei fraction (CBRC016) | cleaved PARP positive nuclei fraction (CBRC017) | cleaved PARP positive nuclei fraction (CBRC034) | cleaved PARP positive nuclei fraction (COLO792) | cleaved PARP positive nuclei fraction (COLO800) | cleaved PARP positive nuclei fraction (COLO829) | cleaved PARP positive nuclei fraction (G361) | cleaved PARP positive nuclei fraction (IPC-298) | cleaved PARP positive nuclei fraction (IST-MEL1) | cleaved PARP positive nuclei fraction (LB2518-MEL) | cleaved PARP positive nuclei fraction (LOXIMVI) | cleaved PARP positive nuclei fraction (MEL-HO)
CN(c1ncccc1CNc1nc(Nc2ccc3c(c2)CC(=O)N3)ncc1C(F)(F)F)S(C)(=O)=O + Clc1ccc(Nc2nnc(Cc3ccncc3)c3ccccc23)cc1 [vatalanib] (first compound 0.08 µM, partner dose 2 µM) | 121% | 119% | 210% | 136% | 102% | 36.3% | 120% | 161% | 91% | 189% | 153% | 64.7% | 19.7% | 247% | 95.9% | 122% | 327% | 115% | 72.9%
CCCCCCCCc1ccc(CCC(N)(CO)CO)cc1 [fingolimod] + O=C(O)[C@@H]1[O][Sb](=[O])([O][Sb]2(=[O])[O][C@H]([C@H](O)CO)[C@H](O)[C@H](C(=O)O)[O]2)[O][C@H]([C@H](O)CO)[C@@H]1O [stibogluconate] (first compound 2 µM, partner dose 2 µM) | 101% | 91.9% | 45.4% | 340% | 28.7% | 84.1% | 78.5% | 133% | 128% | 102% | 85.1% | 130% | 100% | 120% | 94% | 129% | 46.8% | 79.1% | 70.3%
NC1(c2ccc(-c3nc4ccn5c(=O)[nH]nc5c4cc3-c3ccccc3)cc2)CCC1 + C[C@]1(c2nc3c(C(N)=O)cccc3[nH]2)CCCN1 [Veliparib] (first compound 0.4 µM, partner dose 1.4 µM) | 97.5% | 79.8% | 63% | 140% | 84% | 51.3% | 79% | 86.8% | 88.3% | 31.6% | 98.3% | 74.6% | 183% | 136% | 89.4% | 64% | 104% | 128% | 137%
Cn1cnc2c(F)c(Nc3ccc(Br)cc3Cl)c(C(=O)NOCCO)cc21 [selumetinib] + CCN(CC)CCNC(=O)c1c(C)[nH]c(/C=C2\C(=O)Nc3ccc(F)cc32)c1C [sunitinib] (first compound 0.015 µM, partner dose 0.4 µM) | 649% | 122% | 51.7% | 134% | 105% | 134% | 94.3% | 231% | 96% | 198% | 110% | 106% | 50% | 186% | 37.7% | 36.9% | 209% | 61.8% | 94.2%
CN(c1ncccc1CNc1nc(Nc2ccc3c(c2)CC(=O)N3)ncc1C(F)(F)F)S(C)(=O)=O + COc1ccc(Cl)c(Nc2nc3ccccc3nc2NS(=O)(=O)c2cccc(NC(=O)C(C)(C)N)c2)c1 [XL147] (first compound 0.08 µM, partner dose 0.8 µM) | 105% | 136% | 168% | 84.9% | 94.8% | 96% | 116% | 258% | 258% | 39.3% | 148% | 77.8% | 94.4% | 46.2% | 171% | 131% | 149% | 48.4% | 119%
C[C@]1(O)C[C@@H](c2nc(-c3ccc4ccc(-c5ccccc5)nc4c3)c3c(N)nccn32)C1 + CO[C@H]1C[C@@H]2CC[C@@H](C)[C@@](O)(O2)C(=O)C(=O)N2CCCC[C@H]2C(=O)O[C@H]([C@H](C)C[C@@H]2CC[C@@H](OCCO)[C@H](OC)C2)CC(=O)[C@H](C)/C=C(\C)[C@@H](O)[C@@H](OC)C(=O)[C@H](C)C[C@H](C)/C=C/C=C/C=C/1C [everolimus] (first compound 0.4 µM, partner dose 0.02 µM) | 12900% | 60.9% | 196% | 913% | 151% | 172% | 118% | 90.9% | 185% | 102% | 224% | 245% | 169% | 279% | 231% | 117% | 183% | 209% | 28.7%
NC1(c2ccc(-c3nc4ccn5c(=O)[nH]nc5c4cc3-c3ccccc3)cc2)CCC1 + Nc1ccn([C@@H]2O[C@H](CO)[C@@H](O)C2(F)F)c(=O)n1 [gemcitabine] (first compound 0.4 µM, partner dose 0.0004 µM) | 138% | 49.4% | 148% | 140% | 325% | 251% | 140% | 1120% | 109% | 159% | 201% | 26.3% | 78.7% | 195% | 152% | 195% | 60.2% | 56.9% | 90.2%
Cn1cnc2c(F)c(Nc3ccc(Br)cc3Cl)c(C(=O)NOCCO)cc21 [selumetinib] + CC(=O)O[C@@]12CO[C@@H]1C[C@H](O)[C@@]1(C)C(=O)[C@H](O)C3=C(C)[C@@H](OC(=O)[C@H](O)[C@@H](NC(=O)OC(C)(C)C)c4ccccc4)C[C@@](O)([C@@H](OC(=O)c4ccccc4)[C@H]21)C3(C)C [Docetaxel] (first compound 0.015 µM, partner dose 0.0001 µM) | 35800% | 59.1% | 1170% | 1140% | 110% | 364% | 109% | 182% | 284% | 372% | 556% | 196% | 78.4% | 543% | 571% | 232% | 178% | 141% | 188%
